Test results as given in publication PMC8004883.
The exact form of at least one protein or probe is not confirmed. Results from cells or extracts need not show a direct contact. For part of these data: No signal at the amounts used counts as a negative.

Key:
[1] = system: integrin alpha6 (on 4175-LuT exosomes) + integrin beta4 (on 4175-LuT exosomes); assay: SEM of exosomes captured on aptamer-modified chip; conditions: exosomes 1e8/mL, 1 h, 0.005% PBSt; 5' thiol (HS); 1x PBS + 0.005% Tween-20 (PBSt); pH and temperature not stated; probe immobilised in 1x PBS + 1 M NaCl; protein on the cell surface; single-stranded DNA
[2] = system: integrin alpha6 (on 4175-LuT exosomes) + integrin beta4 (on 4175-LuT exosomes); assay: SPR; conditions: phase-sensitive SPR, exosomes 1.5e6/mL, 1x PBS + 0.005% Tween-20, slow dissociation, anti-CD9 confirmation; 5' thiol (HS); 1x PBS + 0.005% Tween-20 (PBSt); pH and temperature not stated; probe immobilised in 1x PBS + 1 M NaCl; protein on the cell surface; single-stranded DNA
[3] = system: integrin alpha6 (on 4175-LuT exosomes) + integrin beta4 (on 4175-LuT exosomes); assay: SEM of exosomes captured on poly-T passivated chip; conditions: exosomes 1e8/mL, 1 h, 0.005% PBSt, surface nearly free of exosomes; 5' thiol (HS); 1x PBS + 0.005% Tween-20 (PBSt); pH and temperature not stated; probe immobilised in 1x PBS + 1 M NaCl; protein on the cell surface; single-stranded DNA

Sequence | binding result [1] | binding result [2] | binding result [3]
TTTTTTTTTTCGTGCGTATTCGTACTGGAACTGATATCGATGTCCC [IDAB aptamer with 5' T10] | binds | binds | 
TTTTTTTTTT [thiolated poly-thymine (T10 spacer)] |  |  | no binding
